# Experimental data as given in publication PMC11026472.
# Chains of the proteins cited; added tags and fusions are not shown. Residues count along the entry.
# UniProt P21802, residues 22-821: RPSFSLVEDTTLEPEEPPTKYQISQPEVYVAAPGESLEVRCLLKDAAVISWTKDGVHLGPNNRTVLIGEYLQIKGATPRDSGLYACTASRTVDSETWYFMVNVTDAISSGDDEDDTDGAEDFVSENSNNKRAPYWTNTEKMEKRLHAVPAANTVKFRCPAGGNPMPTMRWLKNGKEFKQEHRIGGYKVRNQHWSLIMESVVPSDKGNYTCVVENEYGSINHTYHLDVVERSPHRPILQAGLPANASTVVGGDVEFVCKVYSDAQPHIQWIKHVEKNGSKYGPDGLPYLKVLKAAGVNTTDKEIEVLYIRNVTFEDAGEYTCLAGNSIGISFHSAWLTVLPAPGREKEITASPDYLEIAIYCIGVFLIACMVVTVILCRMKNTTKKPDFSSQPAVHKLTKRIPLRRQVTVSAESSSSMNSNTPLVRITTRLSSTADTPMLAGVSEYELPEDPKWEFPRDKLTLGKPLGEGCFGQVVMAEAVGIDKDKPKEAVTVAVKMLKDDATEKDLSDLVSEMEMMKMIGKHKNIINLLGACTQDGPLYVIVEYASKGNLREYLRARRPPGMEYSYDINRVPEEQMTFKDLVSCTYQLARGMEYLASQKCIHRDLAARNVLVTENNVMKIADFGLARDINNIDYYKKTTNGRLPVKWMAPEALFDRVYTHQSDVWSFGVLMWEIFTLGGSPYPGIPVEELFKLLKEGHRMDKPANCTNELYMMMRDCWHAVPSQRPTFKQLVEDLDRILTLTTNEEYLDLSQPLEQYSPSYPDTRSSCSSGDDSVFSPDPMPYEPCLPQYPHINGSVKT
# These are yes or no findings as the source states them, for the method shown. Binding seen in cells or lysates may run through a third protein. Some entries that bind do so weakly or less than the wild type.
# Target: T1, FGF5 (human (endogenous in NPC tissues)) (UniProt P12034)
# T1 sequence: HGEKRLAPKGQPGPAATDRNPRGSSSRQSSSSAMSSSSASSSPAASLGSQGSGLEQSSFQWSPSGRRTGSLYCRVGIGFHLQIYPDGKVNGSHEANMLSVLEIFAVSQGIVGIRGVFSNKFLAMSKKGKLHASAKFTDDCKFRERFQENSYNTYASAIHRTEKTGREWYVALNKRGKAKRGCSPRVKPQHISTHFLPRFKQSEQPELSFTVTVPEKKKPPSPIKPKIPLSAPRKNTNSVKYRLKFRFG
# Assay: co-IP; NPC tumor tissue lysate incubated with anti-FGF5 antibody or normal rabbit IgG at 4 °C overnight, Protein A/G agarose 4 h at 4 °C; FGFR1, FGFR2, FGFR3, FGFR4 and FGF5 detected by western blot
substance,measurement,value
FGFR2 (from UniProt P21802 22-821) (receptor),binding,binds
